Measured values: the supplement of paper PMC10338343
± gives the standard deviation. Only a part is listed here, and it is no random draw. Many of these values have a large error. The list shows a part of the results.

Test system: MIWI (PIWIL1) piRISC loaded with L1MC piRNA (30 nt)
Assay: pre-steady-state target cleavage rate (min^-1); higher = faster piRNA-guided slicing of the target
Conditions: guide: L1MC piRNA 5'p-UAACUAAAUACUAUGCAAGCUGUAGGUCCU; auxiliary factor: none (no GTSF1)
Outline: (§1)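 Sequencing of uncleaved targets, normalised to depth and to weakly complementary targets, was the readout of this Cleave-'n-Seq assay. A transcribed, DNA-blocked target RNA library (0.1 nM) was mixed with 1 nM active affinity-purified piRISC carrying one synthetic guide, with or without 500 nM GTSF1 partner protein, in HEPES–potassium acetate buffer at 33 °C for 0–8 or 0–960 min. Three trials were pooled, k3 was capped at 0.0001 min^-1, and a burst-and-steady-state fit gave the pre-steady-state cleavage rate.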

Sequence | pre-steady-state target cleavage rate
UCCUGGUACAGCUUCCAUAGUUUUUAGUUA | 0.000202 ± 0.026
UCCUGGUACAGGUUGCAUAGUAUUUACUUA | 0.00733 ± 0.003
UCCUGGAUGUCGAACGUAUCUAUUUAGUUA [g2:g10:cont:t1A] | 0.000133 ± 0.037
UCCUGGAUGAGCUUGGUAAGUAUUUACAAA | 0.00101 ± 0.0067
UCCUGGAUGUCCUUGCUAUGUAUUUAGUUA | 0.00114 ± 0.0073
UCCUCCUACAGCUUGCAUAGUAUUUAGUUA [g2:g26:cont:t1A] | 0.0816 ± 0.015
UCCUGGAUCACGAUGCAUAGUAUUUAGAAA | 0.00207 ± 0.0041
UCCUGGAUGUCGUUGCAUAGGUAUUUAGUUA | 0.00178 ± 0.006
UCCUCCUACACCUUGCAUAGAAUUUAGUUA | 0.00682 ± 0.0023
UCCUGGUACAGCUUCGUUAGUAUUUUCAAA | 0.000897 ± 0.0066
UCCUGCUACAGCUUGCAUAUAUUUAGUUA | 0.00397 ± 0.0033
UCCUGGAUCAGCUUGCAUAGUAUAUAGUAA | 0.0134 ± 0.0052
UCCUGCAACAGCUUGCAUAGUAUUUAGUAA | 0.0736 ± 0.021
UCCUGGAUGUCCUUGCAUAGUAUAUAGUAA | 0.00206 ± 0.004
UCCUGGAUCAGGUUCCAUAGUAUUUAGUUA | 0.000556 ± 0.011
UCCUCCUACAGCUUCGAUAGUAUUUAGUAA | 0.00104 ± 0.0036
UCCUGGAACAGCUUGCAUAGUAUUUAGUUA [g2:g23:cont:t1A] | 0.0833 ± 0.014
UCCUCCUACAGCUUGCAUACUAUUAAGUUA | 0.00892 ± 0.0014
UCCUGGAUCAGCAUGCAUAGUAUUUAGAUA | 0.00494 ± 0.0022
UCCUGGAUGUCGUUGCAUAGUAUUUAUUA | 0.000715 ± 0.0089

Sequence | pre-steady-state target cleavage rate
UCCUGGAUGUCGAAGCAUAGUAUUUAUUUA | 0.000771 ± 0.0056
UCCUGGAUGUCCUUGCAUAGUAUUUUCAUA | 0.00128 ± 0.0049
UCCUGGAUCAGCUUGCAUACAUUUUACAAA | 0.000328 ± 0.01
UCCUGCACAGCUUGCAUAGUAUUUAGUUA | 0.0804 ± 0.018
UCCUGGAACAGCUUGCAUAGGUAUUUAGUUA | 0.000499 ± 0.01
UCCUGGAUGUCGAACCAUUCUAUUUAGUUA | 0.000328 ± 0.015
UCCUGGAUCAGCUACGAUAGUAUUUAGUAA | 0.000694 ± 0.0099
UCCUGGAUGUCCAACCAUAGUAUUUAGUAA | 0.000198 ± 0.022
UCCUGCCUACAGCUUGCAUAGUAUUUAGUUA | 0.0623 ± 0.014
UCCUGGAUGUGCUUCCAUUGUAUUUAGUUA | 0.000608 ± 0.011
UCCUGGAUCAGCUACGAUAGUAUUUAGUUA | 0.00163 ± 0.0046
UCCUGGAUGUCCUUGCAUAGUAUUUAUUA | 0.00242 ± 0.0035
UCCUGGAUGUCGAUGCAUAGUAUUGUAGUUA | 0.000487 ± 0.015
UCCUGGUACAGCUUGCAUACAUUUUUCAAA | 0.000553 ± 0.012
UCCUGGAUGUGCUUGCAUAGUAUUAGUUA | 0.00217 ± 0.0034
UCCUGGAUGUCCUUGCAUAGAAUUUUGUUA | 0.00108 ± 0.0064
UCCUGGAUGUCCUUGCAAACUAUUUAGUUA | 0.00111 ± 0.0056
UCCUGGAUGUCCUUGCAAUCUAUUUAGUUA | 0.000895 ± 0.0056
UCCUGCUACAGCUUGCAUAGUAUUUUCAUA | 0.00202 ± 0.0028
UCCUGGAUGUGGAUGCAUAGUAUUUAGAAA | 0.00038 ± 0.011

Test system: EfPiwi piRISC loaded with L1MC piRNA (26 nt)
Assay: pre-steady-state target cleavage rate (min^-1); guide: L1MC piRNA 5'p-UAACUAAAUACUAUGCAAGCUGUAGG; MIWI and MILI are mouse PIWI proteins and EfPiwi is from a freshwater sponge; tags in brackets are library labels; higher = faster piRNA-guided slicing of the target
Conditions: auxiliary factor: 500 nM Ephydatia muelleri Gtsf1
Outline: as §1

Sequence | pre-steady-state target cleavage rate
UCCUGGUACAGCUUCCAUAGUUUUUAGUUA | 0.000588 ± 0.022
UCCUGGUACAGGUUGCAUAGUAUUUACUUA | 0.000428 ± 0.015
UCCUGGAUGAGCUUGGUAAGUAUUUACAAA | 0.000193 ± 0.023
UCCUGGAUGUCCUUGCUAUGUAUUUAGUUA | 0.000289 ± 0.014
UCCUCCUACAGCUUGCAUAGUAUUUAGUUA [g2:g26:cont:t1A] | 0.121 ± 0.034
UCCUGGAUCACGAUGCAUAGUAUUUAGAAA | 0.0021 ± 0.0039
UCCUGGAUGUCGUUGCAUAGGUAUUUAGUUA | 0.000281 ± 0.018
UCCUGGUACAGCUUCGUUAGUAUUUUCAAA | 0.000189 ± 0.037
UCCUGGAUCAGCUUGCAUAGUAUAUAGUAA | 0.00291 ± 0.0023
UCCUGCAACAGCUUGCAUAGUAUUUAGUAA | 0.00572 ± 0.0023
UCCUGGAUGUCCUUGCAUAGUAUAUAGUAA | 0.00158 ± 0.0047
UCCUGGAUCAGGUUCCAUAGUAUUUAGUUA | 0.000735 ± 0.0043
UCCUCCUACAGCUUCGAUAGUAUUUAGUAA | 0.00413 ± 0.0021
UCCUGGAACAGCUUGCAUAGUAUUUAGUUA [g2:g23:cont:t1A] | 0.0806 ± 0.018
UCCUGGAUCAGCAUGCAUAGUAUUUAGAUA | 0.0044 ± 0.0024
UCCUGGAUGUCGUUGCAUAGUAUUUAUUA | 0.000442 ± 0.0081
UCCUGGAUGUCGAAGCAUAGUAUUUAUUUA | 0.000218 ± 0.018
UCCUGGAUGUCCUUGCAUAGUAUUUUCAUA | 0.00154 ± 0.0056

Sequence | pre-steady-state target cleavage rate
UCCUGGAUCAGCUUGCAUACAUUUUACAAA | 0.00141 ± 0.0083
UCCUGCACAGCUUGCAUAGUAUUUAGUUA | 0.0745 ± 0.016
UCCUGGAACAGCUUGCAUAGGUAUUUAGUUA | 0.00262 ± 0.0026
UCCUGGAUGUCGAACCAUUCUAUUUAGUUA | 0.000103 ± 0.023
UCCUGGAUCAGCUACGAUAGUAUUUAGUAA | 0.000224 ± 0.026
UCCUGGAUGUCCAACCAUAGUAUUUAGUAA | 0.000292 ± 0.011
UCCUGCCUACAGCUUGCAUAGUAUUUAGUUA | 0.0909 ± 0.021
UCCUGGAUGUGCUUCCAUUGUAUUUAGUUA | 0.000961 ± 0.0043
UCCUGGAUGUCCUUGCAUAGUAUUUAUUA | 0.00231 ± 0.0037
UCCUGGAUGUCGAUGCAUAGUAUUGUAGUUA | 0.000234 ± 0.021
UCCUGGUACAGCUUGCAUACAUUUUUCAAA | 0.00028 ± 0.015
UCCUGGAUGUGCUUGCAUAGUAUUAGUUA | 0.0016 ± 0.0037
UCCUGGAUGUCCUUGCAUAGAAUUUUGUUA | 0.000177 ± 0.031
UCCUGGAUGUCCUUGCAAACUAUUUAGUUA | 0.00123 ± 0.0063
UCCUGGAUGUCCUUGCAAUCUAUUUAGUUA | 0.000784 ± 0.0089
UCCUGCUACAGCUUGCAUAGUAUUUUCAUA | 0.00529 ± 0.0027
UCCUGGAUGUGGAUGCAUAGUAUUUAGAAA | 0.00388 ± 0.0027
